In the assay the target is HA-tagged hNOD2 (hNOD2-HA) (human) (UniProt Q9HC29). Nature of the assay: native gel or EMSA.

The chains behind the UniProt entries cited, without tags or fusion partners.
UniProt Q9HC29: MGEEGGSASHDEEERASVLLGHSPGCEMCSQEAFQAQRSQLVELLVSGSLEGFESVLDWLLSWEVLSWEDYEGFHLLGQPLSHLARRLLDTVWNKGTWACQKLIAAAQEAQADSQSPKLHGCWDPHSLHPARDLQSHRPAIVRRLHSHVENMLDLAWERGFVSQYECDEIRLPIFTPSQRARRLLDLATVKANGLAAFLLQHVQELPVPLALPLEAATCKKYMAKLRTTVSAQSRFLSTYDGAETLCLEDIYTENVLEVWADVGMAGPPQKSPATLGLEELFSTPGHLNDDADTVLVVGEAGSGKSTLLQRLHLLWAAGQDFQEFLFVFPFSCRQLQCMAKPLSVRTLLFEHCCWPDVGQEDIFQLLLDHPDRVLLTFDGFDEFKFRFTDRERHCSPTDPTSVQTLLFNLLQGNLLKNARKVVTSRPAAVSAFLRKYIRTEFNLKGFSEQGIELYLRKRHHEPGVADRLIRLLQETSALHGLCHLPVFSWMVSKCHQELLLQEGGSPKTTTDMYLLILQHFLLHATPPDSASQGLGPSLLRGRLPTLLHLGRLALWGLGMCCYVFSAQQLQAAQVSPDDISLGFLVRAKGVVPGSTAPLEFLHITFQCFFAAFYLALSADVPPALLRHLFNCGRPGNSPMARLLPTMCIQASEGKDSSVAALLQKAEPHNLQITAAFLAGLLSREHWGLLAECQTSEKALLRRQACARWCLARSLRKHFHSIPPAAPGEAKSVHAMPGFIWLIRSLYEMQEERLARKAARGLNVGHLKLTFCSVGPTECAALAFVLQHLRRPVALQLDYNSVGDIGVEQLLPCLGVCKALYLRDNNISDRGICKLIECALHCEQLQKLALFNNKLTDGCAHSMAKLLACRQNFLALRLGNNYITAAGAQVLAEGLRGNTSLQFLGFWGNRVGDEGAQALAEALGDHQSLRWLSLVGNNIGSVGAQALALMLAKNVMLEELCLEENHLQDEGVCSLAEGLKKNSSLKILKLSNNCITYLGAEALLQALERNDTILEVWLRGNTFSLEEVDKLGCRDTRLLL

These results are taken from publication doi:10.1101/2024.02.19.580982.

Results are given in words; binding and its absence hold for the method and conditions named. Some entries that bind do so weakly or less than the wild type.

As to “HA-tagged hNOD2 (hNOD2-HA) (from UniProt Q9HC29 1-1040)”, the binding entry is reported as “binds”.
